Assay results reported in PMC4666396.

target: T1, Splicing factor 1 (SF1) (human (endogenous in HeLa)) (UniProt Q15637); assay: affinity purification with mass spectrometry; anti-SF1 on Protein G Sepharose; HeLa cell nuclear extract without or with 0.3 mg/ml RNase A; IP buffer 50 mM Tris-HCl pH 7.9, 100 mM NaCl, 0.05% NP-40, 0.5 mM DTT, 1 h 4°C; 1D PAGE, LC-MSMS; control mouse IgG
T1 sequence: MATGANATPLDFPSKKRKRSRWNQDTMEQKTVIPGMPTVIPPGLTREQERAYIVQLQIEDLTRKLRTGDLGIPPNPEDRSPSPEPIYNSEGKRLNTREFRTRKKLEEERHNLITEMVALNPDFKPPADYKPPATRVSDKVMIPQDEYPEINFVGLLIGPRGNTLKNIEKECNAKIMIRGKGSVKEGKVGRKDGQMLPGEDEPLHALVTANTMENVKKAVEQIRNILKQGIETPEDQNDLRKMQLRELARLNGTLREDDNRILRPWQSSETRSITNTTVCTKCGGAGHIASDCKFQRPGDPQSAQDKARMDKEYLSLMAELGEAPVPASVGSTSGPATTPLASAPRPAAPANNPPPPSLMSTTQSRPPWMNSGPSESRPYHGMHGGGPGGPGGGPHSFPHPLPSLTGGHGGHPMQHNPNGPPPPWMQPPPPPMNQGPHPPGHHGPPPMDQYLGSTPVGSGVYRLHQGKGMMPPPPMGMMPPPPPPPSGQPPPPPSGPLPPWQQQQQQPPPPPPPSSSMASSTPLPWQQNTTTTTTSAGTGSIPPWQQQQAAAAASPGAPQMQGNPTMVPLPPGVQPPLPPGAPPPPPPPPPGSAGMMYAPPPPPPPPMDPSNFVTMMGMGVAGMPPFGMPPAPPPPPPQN

Binder	binding
SURP and G-patch domain-containing protein 1 (SUGP1) (protein, UniProt Q8IWZ8 1-645) MSLKMDNRDVAGKANRWFGVAPPKSGKMNMNILHQEELIAQKKREIEAKMEQKAKQNQVASPQPPHPGEITNAHNSSCISNKFANDGSFLQQFLKLQKAQTSTDAPTSAPSAPPSTPTPSAGKRSLLISRRTGLGLASLPGPVKSYSHAKQLPVAHRPSVFQSPDEDEEEDYEQWLEIKVSPPEGAETRKVIEKLARFVAEGGPELEKVAMEDYKDNPAFAFLHDKNSREFLYYRKKVAEIRKEAQKSQAASQKVSPPEDEEVKNLAEKLARFIADGGPEVETIALQNNRENQAFSFLYEPNSQGYKYYRQKLEEFRKAKASSTGSFTAPDPGLKRKSPPEALSGSLPPATTCPASSTPAPTIIPAPAAPGKPASAATVKRKRKSRWGPEEDKVELPPAELVQRDVDASPSPLSVQDLKGLGYEKGKPVGLVGVTELSDAQKKQLKEQQEMQQMYDMIMQHKRAMQDMQLLWEKAVQQHQHGYDSDEEVDSELGTWEHQLRRMEMDKTREWAEQLTKMGRGKHFIGDFLPPDELEKFMETFKALKEGREPDYSEYKEFKLTVENIGYQMLMKMGWKEGEGLGSEGQGIKNPVNKGTTTVDGAGFGIDRPAELSKEDDEYEAFRKRMMLAYRFRPNPLNNPRRPYY	binds
SRp40 (protein, UniProt Q13243 1-272) MSGCRVFIGRLNPAAREKDVERFFKGYGRIRDIDLKRGFGFVEFEDPRDADDAVYELDGKELCSERVTIEHARARSRGGRGRGRYSDRFSSRRPRNDRRNAPPVRTENRLIVENLSSRVSWQDLKDFMRQAGEVTFADAHRPKLNEGVVEFASYGDLKNAIEKLSGKEINGRKIKLIEGSKRHSRSRSRSRSRTRSSSRSRSRSRSRSRKSYSRSRSRSRSRSRSKSRSVSRSPVPEKSQKRGSSSRSKSPASVDRQRSRSRSRSRSVDSGN	binds
SRp55 (protein, UniProt Q13247 1-344) MPRVYIGRLSYNVREKDIQRFFSGYGRLLEVDLKNGYGFVEFEDSRDADDAVYELNGKELCGERVIVEHARGPRRDRDGYSYGSRSGGGGYSSRRTSGRDKYGPPVRTEYRLIVENLSSRCSWQDLKDFMRQAGEVTYADAHKERTNEGVIEFRSYSDMKRALDKLDGTEINGRNIRLIEDKPRTSHRRSYSGSRSRSRSRRRSRSRSRRSSRSRSRSISKSRSRSRSRSKGRSRSRSKGRKSRSKSKSKPKSDRGSHSHSRSRSKDEYEKSRSRSRSRSPKENGKGDIKSKSRSRSQSRSNSPLPVPPSKARSVSPPPKRATSRSRSRSRSKSRSRSRSSSRD	binds
9G8 (protein, UniProt Q16629 1-238) MSRYGRYGGETKVYVGNLGTGAGKGELERAFSYYGPLRTVWIARNPPGFAFVEFEDPRDAEDAVRGLDGKVICGSRVRVELSTGMPRRSRFDRPPARRPFDPNDRCYECGEKGHYAYDCHRYSRRRRSRSRSRSHSRSRGRRYSRSRSRSRGRRSRSASPRRSRSISLRRSRSASLRRSRSGSIKGSRYFQSPSRSRSRSRSISRPRSSRSKSRSPSPKRSRSPSGSPRRSASPERMD	binds

Results are given in words; binding and its absence hold for the method and conditions named. Binding seen in cells or lysates may run through a third protein. A yes stands for co-enrichment or nearness to the bait. Other partners may have been found.
